Measurements published in paper PMC8587043, “An Investigation into the Interaction between Double Hydroxide-Based Antioxidant Benzophenone Derivatives and Cyclooxygenase 2” (Molecules, 2021).

System: EA.hy926 cells
Test: Protective effect against H2O2-induced oxidative damage, MTT assay
Assay type: cell-based
Settings: Homo sapiens, EA.hy 926, 4 h, protection against H2O2-induced damage (400 µmol·L^−1, 4 h), n = 3, mean ± SD
Description: Hydrogen peroxide (H2O2), a small molecule and functions as oxidative stress and a second messenger which contributes to cell damage or death, could directly induce inflammation in several cell lines. H2O2-induced cell damage is a commonly used model for antioxidant activity evaluation. […] Thus, the concentration of 400 µmol·L^−1 at 4 h was chosen as the model.
Compound SC2 stock solutions were prepared in DMSO. The stock solutions were diluted with FBS free DMEM to different target concentrations (DMSO concentrations ≤ 0.5% v:v). Cells (100 μL, 2 × 10^5 cells∙mL^−1) were seeded on 96-well plates and cultured for 24 h. […] A microplate reader (SpectraMaxPlus384, Molecular Devices, United States) was used to record the absorbance at 490 nm for each well of the plates. Cell viability was measured via MTT assay. […]
Cells (100 μL, 2 × 10^5 cells·mL^−1) were seeded in 96-well plates for 24 h. Cells were treated with different groups and cell viability was measured via MTT assay. The protection rates to oxidative damage were determined and EC50 values were calculated. The protection rates to cells were calculated using the following formula: Protection rate (%) = (Apretreatment group − Amodel group)/(Acontrol group − Amodel group) × 100%.

`CC(C)OC(=O)C(C)(C)Oc1ccc(C(=O)c2ccc(Cl)cc2)cc1` [Fenofibrate, fenofibrate, reference compound] gave an EC50 of 6.92 ± 0.61 µM.
